Several values for one entry are separate records, joined by “and”; a condition that tells them apart may be missing. Equal entries are not always repeated. The list shows a part of the results. This data set is noisy: repeats of one test often differ as much as different tests do.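 ATM8/balancer (normal ATM) heterozygous flies were crossed on treated food; parents laid eggs 5–6 days, offspring developed ~12 days, so parents and larvae ingested compound. Readout: fraction of emerged adults homozygous for ATM8 versus 2% DMSO controls. Compounds were neutral at 10–20% homozygotes, harmful below 10%, helpful above 20%.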

In the experiment the test system is Drosophila melanogaster ATM8 (temperature-sensitive ATM allele). As to the kind of experiment: fraction of eclosed F1 progeny that are homozygous ATM8 (rescue of developmental lethality); higher = more rescue of ATM8 developmental lethality; extreme values may be limits of the assay. The following applies: compound concentration applied to food 0.2 mM; 21 °C.
Consider `C=NC(C(=O)NC1C(=O)N2C1SC(C)(C)C2C(=O)O)c1ccccc1` (configuration not stated), for which the “fraction of eclosed F1 progeny that are homozygous ATM8” value (“fraction” below) is 0.148.

Regarding `CC(C)COCC(CN(Cc1ccccc1)c1ccccc1)N1CCCC1` (configuration not stated), the “fraction” value is 0.0235.

For `CC(O)CN1CCN(CC(=O)[O-])CCN(CC(=O)[O-])CCN(CC(=O)[O-])CC1.[Gd+3]` (configuration not stated), the “fraction” value turned out to be 0.0545.

For `O=C(Nc1ccc(C(=O)O)c(O)c1)c1ccccc1`, the “fraction” value turned out to be 0.025.

Take `CCCCOC(=O)c1ccc(N)cc1`: the “fraction” value came to 0.25.

For `CC[C@H]1OC(=O)[C@H](C)[C@@H](O[C@H]2C[C@@](C)(OC)[C@@H](O)[C@H](C)O2)[C@H](C)[C@@H](O[C@@H]2O[C@H](C)C[C@H](N(C)C)[C@H]2O)[C@](C)(OC)C[C@@H](C)C(=O)[C@H](C)[C@@H](O)[C@]1(C)O`, the “fraction” value was found to be 0.0889.

`CCCCC1=NC2(CCCC2)C(=O)N1Cc1ccc(-c2ccccc2-c2nnn[nH]2)cc1`: the “fraction” value stood at 0.211.

On to `C[C@H]1COC2=C1C(=O)C(=O)c1c2ccc2c1CCCC2(C)C`, for which the “fraction” value is 0.255.

Turning to `CCOc1ccc(C(=O)c2ccc(OC)c(O)c2O)cc1`, the “fraction” value worked out at 0.152.

With `CCCC(C)(COC(N)=O)COC(=O)NC(C)C` (configuration not stated), the “fraction” value came to 0.0286.

As to `NC1(C(=O)O)CCC1`, the “fraction” value worked out at 0.133.

In the case of `COc1ccc(Cc2cnc(N)nc2N)cc1OC`, the “fraction” value stood at 0.0571.

For `COC(C)(C)CCC[C@H](C)C/C=C/C(C)=C/C(=O)OC(C)C`, the “fraction” value turned out to be 0.105.

As for `C[N+]1(C)CCCC(OC(=O)C(O)(c2ccccc2)c2ccccc2)C1` (configuration not stated), the “fraction” value worked out at 0.152.

In the case of `CNCC[C@H](Oc1cccc2ccccc12)c1cccs1`, the “fraction” value is 0.164.

As for `COc1cc(OC)c(OC)cc1C=O`, the “fraction” value turned out to be 0.294.

Take `CO[C@@]1(NC(=O)Cc2cccs2)C(=O)N2C(C(=O)O)=C(COC(N)=O)CS[C@@H]21`: the “fraction” value amounted to 0.138.

On to `COC(=O)/C(C)=C\CC12OC(C)(C)C3CC(C=C4C(=O)c5c(c(CCC(C)(C)Cl)c6c(c5OC)C5CC(C)(CCC5=C(C)C)O6)OC431)C2=O` (configuration not stated), for which the “fraction” value was determined as 0.189.

On to `COc1cc2c(cc1OC)C(=O)C(CC1CCN(Cc3ccccc3)CC1)C2` (configuration not stated), for which the “fraction” value stood at 0.294.

`CCCCC(CC)CN1CN(CC(CC)CCCC)CC(C)(N)C1` (configuration not stated): the “fraction” value came to 0.102.

As to `CC(C)CCCC(C)C1CCC2C3CCC4CCCCC4(C)C3CCC12C` (configuration not stated), the “fraction” value was 0.0227.

With `C=CCc1ccc(OC(=O)c2ccccc2)c(OC)c1`, the “fraction” value amounted to 0.0408.

`CCN(CC)CCOC(=O)C(c1ccccc1)C1CCCCC1` (configuration not stated): the “fraction” value was determined as 0.025.

As for `COCC1=C(C(=O)OC(C)OC(=O)OC(C)C)N2C(=O)[C@@H](NC(=O)/C(=N\OC)c3csc(N)n3)[C@H]2SC1` (some centres not stated), the “fraction” value turned out to be 0.

`COc1cc(Cc2cnc(N)nc2N)cc(OC)c1OC`: the “fraction” value is 0.257.

In the case of `CS(=O)(=O)c1ccc(C2=C(c3ccccc3)C(=O)OC2)cc1`, the “fraction” value stood at 0.171.

As to `Oc1ccc(Cl)c2c1CCC2`, the “fraction” value was found to be 0.

Regarding `Cc1[nH]c(=O)c(C#N)cc1-c1ccncc1`, the “fraction” value amounted to 0.069.

With `C#C[C@]1(O)CC[C@H]2[C@@H]3CCc4cc(OC5CCCC5)ccc4[C@H]3CC[C@@]21C`, the “fraction” value amounted to 0.0851.

Regarding `CN(C)CCC=C1c2ccccc2CCc2ccccc21`, the “fraction” value stood at 0.0455.

For the compound `Cc1ccnc2c1NC(=O)c1cccnc1N2C1CC1`, the “fraction” value turned out to be 0.1.

For the compound `CC(=O)O[C@@H]1C[C@H]2C(C)(C)C(=O)C=C[C@]2(C)[C@H]2CC[C@]3(C)C(=CC(=O)O[C@H]3c3ccoc3)[C@@]21C`, the “fraction” value was 0.0267.

As to `O=C(Nc1ccccc1)c1ccccc1O`, the “fraction” value was 0.087.

As for `C=C1C(=O)[C@]23[C@H](CC[C@@H]1[C@@H]2O)[C@]12CO[C@@]3(O)[C@H](O)[C@H]1C(C)(C)CC[C@@H]2O`, the “fraction” value amounted to 0.119.

On to `COC(=O)C[C@H]1C(C)(C)C(=O)[C@@H]2CC3=C(CC[C@]4(C)C3=CC(=O)O[C@H]4c3ccoc3)[C@@]1(C)C2=O`, for which the “fraction” value was found to be 0.184.

For `COc1cc(/C=C/C(=O)N2CCC=CC2=O)cc(OC)c1OC`, the “fraction” value came out at 0.15.

With `COc1ccc(C2C(=O)c3ccccc3C2=O)cc1`, the “fraction” value was 0.259.

On to `Cc1cccc(C)c1NC(=O)C1CCCCN1C` (configuration not stated), for which the “fraction” value was found to be 0.2.

For `CC(=O)Oc1ccc2c(c1)CC[C@@H]1[C@@H]2CC[C@]2(C)[C@@H](OC(C)=O)CC[C@@H]12`, the “fraction” value stood at 0.161.

For `Cc1ncc([N+](=O)[O-])n1CC(O)CCl` (configuration not stated), the “fraction” value turned out to be 0.254.

`COc1cc(OC)c2c(OC)c(-c3ccc4c(c3)OCO4)c(=O)oc2c1`: the “fraction” value was found to be 0.32.

Regarding `CN1C(C(=O)Nc2ccccn2)=C(O)c2sccc2S1(=O)=O`, the “fraction” value was found to be 0.108.

As for `N#Cc1ccc2[nH]cc(CCCCN3CCN(c4ccc5oc(C(N)=O)cc5c4)CC3)c2c1`, the “fraction” value is 0.333.

Consider `N=C(N)N`, for which the “fraction” value is 0.0926 and 0.08.

On to `C[C@]12CC[C@H]3C(=CCc4cc(O)ccc43)[C@@H]1CCC2=O`, for which the “fraction” value stood at 0.0385.

In the case of `C[C@]12C=CC(=O)C=C1CC[C@@H]1[C@@H]2[C@@H](O)C[C@@]2(C)[C@H]1CC[C@]2(O)C(=O)COP(=O)(O)O`, the “fraction” value came to 0.304.

As to `CN1[C@@H](CC(=O)c2ccccc2)CCC[C@H]1C[C@H](O)c1ccccc1`, the “fraction” value was 0.143.
